The nature of data set [1]: general procedure: Fmoc solid-phase peptide synthesis; HβPhPro-2-chlorotrityl resin; HOBt/DIC; TBTU/DIPEA. Conditions: whole synthesis, scale 1.3 mmol, TFA.
Data set [2] can be described thus: general procedure: Fmoc solid-phase peptide synthesis; FmocN(Bn)CH2CH2OCH2CH2O-2-chlorotrityl resin; HOBt/DIC; TBTU/DIPEA. Conditions: whole synthesis, scale 2.2 mmol, TFA.

For some assays here: HELM strings list residues between dots; [ac] is acetyl, [am] amide, other brackets name non-standard units.

Ac-Cha-Gpg(Pmc)-Tic-Nle-βPhPro-OH displayed a crude mass in data set [1] of 1.188 g.
In data set [2], “PEPTIDE1{[ac].[Cha].R.[Tic].[Nle].[ccap]}$$$$V2.0” yielded a crude mass of 1.38 g.

(Values after patent US7629318B2 (priority 2002, dated 2009).)
